Source: PubChem BioAssay AID686937 (Drosophila RNAi Screening Center, 2013)
The screen tested about 23,000 reagents; shown is an unselected part of those with a known target gene and a result. 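Reduced-secretion tags in replicate 1 do not always agree with the z-scores; no criterion for assigning the tags was given.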 A plus sign joins genes that one reagent is predicted to hit. Further read-outs or replicates are left out here. Not given: the amount of reagent.

- Test: 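Genes whose loss weakens secretory pathway function in fly cells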 (primary screen)
- Cell system: Drosophila S2 cells expressing secreted horseradish peroxidase
- Reagents: long dsRNA against Drosophila genes
- Time to read-out: about 5.5 days (5 days dsRNA, then 12 h reporter induction)
- Treatment: reporter expression induced after 5 days of dsRNA, read 12 h later; inducer not stated
- Detection: 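Chemiluminescent measurement of peroxidase in the medium 12 h after reporter induction, following 5 days of dsRNA, given as a z-score per plate; higher means more secretion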
- Direction: z-score: higher = more reporter secreted into medium

How did the screen score MED27 (Mediator complex subunit 27) [SID104191997]?
z-score, replicate 1: -1.1

With lncRNA:sphinx + ATPsynF [SID104196983], what does the deposit list?
z-score, replicate 1: -0.78

Which result is listed for TP53INP (Tumor protein p53 inducible nuclear protein) [SID104187970]?
z-score, replicate 1: 0.1

Which result is listed for TP53INP (Tumor protein p53 inducible nuclear protein) [SID104201986]?
z-score, replicate 1: 1.31

For BuGZ (Bub3 interacting GLEBS and Zinc finger domain protein) [SID104182434], what does the deposit list?
z-score, replicate 1: 0.2

How did the screen score BuGZ (Bub3 interacting GLEBS and Zinc finger domain protein) [SID104182435]?
z-score, replicate 1: 0.29

Which result is listed for CG13218 [SID104186132]?
z-score, replicate 1: 0.29

For Rim2 (Replication in mitochondria 2) [SID104179865], what does the deposit list?
z-score, replicate 1: 0.41

For Rim2 (Replication in mitochondria 2) [SID104180312], what was measured?
z-score, replicate 1: 0.3

For Rim2 (Replication in mitochondria 2) [SID104202085], what was measured?
z-score, replicate 1: -0.84

What is on record for TpnC47D (Troponin C at 47D) [SID104187356]?
z-score, replicate 1: 0.33

Which result is listed for Ate1 (Arginyltransferase 1) [SID104185717]?
z-score, replicate 1: -0.48

Which result is listed for Cbp80 (cap binding protein 80) [SID104198242]?
z-score, replicate 1: 0.29

Which result is listed for CG6418 [SID104190425]?
z-score, replicate 1: 0.55

For tamo [SID104184238], how do the results read?
z-score, replicate 1: 0.29

How did the screen score Srrm234 (Serine-arginine repetitive matrix 2/3/4) [SID104187747]?
z-score, replicate 1: -1.28

How did the screen score Srrm234 (Serine-arginine repetitive matrix 2/3/4) [SID104188398]?
z-score, replicate 1: 0.32

2 neighbouring records already listed, for reference:
Cbp80 (cap binding protein 80) [SID104198242] — z-score, replicate 1 = 0.29
CG6418 [SID104190425] — z-score, replicate 1 = 0.55
